Experimental data as given in article PMC10130768.
Results are given in words; binding and its absence hold for the method and conditions named. In cells and extracts the contact can be indirect. Some binding calls cover weakened binding; strength is not graded here.

Chains of the proteins cited; added tags and fusions are not shown.
UniProt Q9UIF9: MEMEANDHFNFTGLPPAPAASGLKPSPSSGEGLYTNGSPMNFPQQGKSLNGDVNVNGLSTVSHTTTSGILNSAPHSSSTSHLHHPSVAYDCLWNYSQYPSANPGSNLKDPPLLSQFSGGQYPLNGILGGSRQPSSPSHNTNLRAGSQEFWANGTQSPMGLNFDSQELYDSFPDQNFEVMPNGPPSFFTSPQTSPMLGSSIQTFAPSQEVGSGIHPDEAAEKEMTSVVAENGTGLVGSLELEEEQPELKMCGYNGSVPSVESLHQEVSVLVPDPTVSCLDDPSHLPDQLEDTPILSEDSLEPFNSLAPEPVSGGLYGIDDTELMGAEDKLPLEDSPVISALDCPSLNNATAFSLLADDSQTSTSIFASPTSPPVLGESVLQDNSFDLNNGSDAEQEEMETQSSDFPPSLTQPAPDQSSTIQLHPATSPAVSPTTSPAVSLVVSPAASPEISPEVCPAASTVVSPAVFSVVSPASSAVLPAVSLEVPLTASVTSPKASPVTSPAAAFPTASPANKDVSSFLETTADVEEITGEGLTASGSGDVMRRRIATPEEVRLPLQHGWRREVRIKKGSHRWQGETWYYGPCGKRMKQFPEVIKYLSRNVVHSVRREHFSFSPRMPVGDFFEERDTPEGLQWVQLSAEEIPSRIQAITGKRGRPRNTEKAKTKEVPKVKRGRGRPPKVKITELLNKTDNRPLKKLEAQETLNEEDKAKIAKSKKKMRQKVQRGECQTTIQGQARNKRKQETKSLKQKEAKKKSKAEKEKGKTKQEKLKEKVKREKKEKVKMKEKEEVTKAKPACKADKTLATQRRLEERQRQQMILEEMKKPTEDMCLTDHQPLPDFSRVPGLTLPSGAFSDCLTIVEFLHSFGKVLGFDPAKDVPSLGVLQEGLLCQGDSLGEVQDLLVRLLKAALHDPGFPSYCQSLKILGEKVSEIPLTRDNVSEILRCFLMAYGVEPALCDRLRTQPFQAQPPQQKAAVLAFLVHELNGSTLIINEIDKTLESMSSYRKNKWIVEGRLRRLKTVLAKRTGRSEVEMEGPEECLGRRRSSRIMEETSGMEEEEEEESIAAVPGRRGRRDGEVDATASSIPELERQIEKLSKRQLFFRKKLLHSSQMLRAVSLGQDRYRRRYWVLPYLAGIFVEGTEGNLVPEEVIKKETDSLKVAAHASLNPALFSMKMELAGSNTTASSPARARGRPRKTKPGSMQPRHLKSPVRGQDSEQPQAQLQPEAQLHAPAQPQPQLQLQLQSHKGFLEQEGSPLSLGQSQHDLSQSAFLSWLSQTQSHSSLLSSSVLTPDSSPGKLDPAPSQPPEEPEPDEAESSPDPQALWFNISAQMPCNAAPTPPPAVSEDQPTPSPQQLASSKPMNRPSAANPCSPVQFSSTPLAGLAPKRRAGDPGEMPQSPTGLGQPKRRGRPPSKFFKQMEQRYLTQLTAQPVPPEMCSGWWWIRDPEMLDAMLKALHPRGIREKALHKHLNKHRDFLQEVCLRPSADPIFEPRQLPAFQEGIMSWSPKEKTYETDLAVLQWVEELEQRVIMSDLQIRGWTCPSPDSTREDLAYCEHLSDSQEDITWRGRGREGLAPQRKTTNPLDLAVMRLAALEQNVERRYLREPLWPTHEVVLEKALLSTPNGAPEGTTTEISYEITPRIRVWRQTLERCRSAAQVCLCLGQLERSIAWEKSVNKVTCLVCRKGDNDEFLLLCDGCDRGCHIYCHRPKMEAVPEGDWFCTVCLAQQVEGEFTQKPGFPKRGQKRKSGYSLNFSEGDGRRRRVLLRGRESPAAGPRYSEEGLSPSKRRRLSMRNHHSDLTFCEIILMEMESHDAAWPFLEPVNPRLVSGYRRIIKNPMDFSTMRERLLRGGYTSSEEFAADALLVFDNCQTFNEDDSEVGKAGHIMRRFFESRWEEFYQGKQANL

B1: SMC1A (protein, UniProt Q14683 1-1233)
chain: MGFLKLIEIENFKSYKGRQIIGPFQRFTAIIGPNGSGKSNLMDAISFVLGEKTSNLRVKTLRDLIHGAPVGKPAANRAFVSMVYSEEGAEDRTFARVIVGGSSEYKINNKVVQLHEYSEELEKLGILIKARNFLVFQGAVESIAMKNPKERTALFEEISRSGELAQEYDKRKKEMVKAEEDTQFNYHRKKNIAAERKEAKQEKEEADRYQRLKDEVVRAQVQLQLFKLYHNEVEIEKLNKELASKNKEIEKDKKRMDKVEDELKEKKKELGKMMREQQQIEKEIKEKDSELNQKRPQYIKAKENTSHKIKKLEAAKKSLQNAQKHYKKRKGDMDELEKEMLSVEKARQEFEERMEEESQSQGRDLTLEENQVKKYHRLKEEASKRAATLAQELEKFNRDQKADQDRLDLEERKKVETEAKIKQKLREIEENQKRIEKLEEYITTSKQSLEEQKKLEGELTEEVEMAKRRIDEINKELNQVMEQLGDARIDRQESSRQQRKAEIMESIKRLYPGSVYGRLIDLCQPTQKKYQIAVTKVLGKNMDAIIVDSEKTGRDCIQYIKEQRGEPETFLPLDYLEVKPTDEKLRELKGAKLVIDVIRYEPPHIKKALQYACGNALVCDNVEDARRIAFGGHQRHKTVALDGTLFQKSGVISGGASDLKAKARRWDEKAVDKLKEKKERLTEELKEQMKAKRKEAELRQVQSQAHGLQMRLKYSQSDLEQTKTRHLALNLQEKSKLESELANFGPRINDIKRIIQSREREMKDLKEKMNQVEDEVFEEFCREIGVRNIREFEEEKVKRQNEIAKKRLEFENQKTRLGIQLDFEKNQLKEDQDKVHMWEQTVKKDENEIEKLKKEEQRHMKIIDETMAQLQDLKNQHLAKKSEVNDKNHEMEEIRKKLGGANKEMTHLQKEVTAIETKLEQKRSDRHNLLQACKMQDIKLPLSKGTMDDISQEEGSSQGEDSVSGSQRISSIYAREALIEIDYGDLCEDLKDAQAEEEIKQEMNTLQQKLNEQQSVLQRIAAPNMKAMEKLESVRDKFQETSDEFEAARKRAKKAKQAFEQIKKERFDRFNACFESVATNIDEIYKALSRNSSAQAFLGPENPEEPYLDGINYNCVAPGKRFRPMDNLSGGEKTVAALALLFAIHSYKPAPFFVLDEIDAALDNTNIGKVANYIKEQSTCNFQAIVISLKEEFYTKAESLIGVYPEQGDCVISKVLTFDLTKYPDANPNPNEQ
B2: RAD21 (protein, UniProt O60216 1-631)
chain: MFYAHFVLSKRGPLAKIWLAAHWDKKLTKAHVFECNLESSVESIISPKVKMALRTSGHLLLGVVRIYHRKAKYLLADCNEAFIKIKMAFRPGVVDLPEENREAAYNAITLPEEFHDFDQPLPDLDDIDVAQQFSLNQSRVEEITMREEVGNISILQENDFGDFGMDDREIMREGSAFEDDDMLVSTTTSNLLLESEQSTSNLNEKINHLEYEDQYKDDNFGEGNDGGILDDKLISNNDGGIFDDPPALSEAGVMLPEQPAHDDMDEDDNVSMGGPDSPDSVDPVEPMPTMTDQTTLVPNEEEAFALEPIDITVKETKAKRKRKLIVDSVKELDSKTIRAQLSDYSDIVTTLDLAPPTKKLMMWKETGGVEKLFSLPAQPLWNNRLLKLFTRCLTPLVPEDLRKRRKGGEADNLDEFLKEFENPEVPREDQQQQHQQRDVIDEPIIEEPSRLQESVMEASRTNIDESAMPPPPPQGVKRKAGQIDPEPVMPPQQVEQMEIPPVELPPEEPPNICQLIPELELLPEKEKEKEKEKEDDEEEEDEDASGGDQDQEERRWNKRTQQMLHGLQRALAKTGAESISLLELCRNTNRKQAAAKFYSFLVLKKQQAIELTQEEPYSDIIATPGPRFHII
B3: NUP107 (protein, UniProt P57740 1-925)
chain: MDRSGFGEISSPVIREAEVTRTARKQSAQKRVLLQASQDENFGNTTPRNQVIPRTPSSFRQPFTPTSRSLLRQPDISCILGTGGKSPRLTQSSGFFGNLSMVTNLDDSNWAAAFSSQRSGLFTNTEPHSITEDVTISAVMLREDDPGEAASMSMFSDFLQSFLKHSSSTVFDLVEEYENICGSQVNILSKIVSRATPGLQKFSKTASMLWLLQQEMVTWRLLASLYRDRIQSALEEESVFAVTAVNASEKTVVEALFQRDSLVRQSQLVVDWLESIAKDEIGEFSDNIEFYAKSVYWENTLHTLKQRQLTSYVGSVRPLVTELDPDAPIRQKMPLDDLDREDEVRLLKYLFTLIRAGMTEEAQRLCKRCGQAWRAATLEGWKLYHDPNVNGGTELEPVEGNPYRRIWKISCWRMAEDELFNRYERAIYAALSGNLKQLLPVCDTWEDTVWAYFRVMVDSLVEQEIQTSVATLDETEELPREYLGANWTLEKVFEELQATDKKRVLEENQEHYHIVQKFLILGDIDGLMDEFSKWLSKSRNNLPGHLLRFMTHLILFFRTLGLQTKEEVSIEVLKTYIQLLIREKHTNLIAFYTCHLPQDLAVAQYALFLESVTEFEQRHHCLELAKEADLDVATITKTVVENIRKKDNGEFSHHDLAPALDTGTTEEDRLKIDVIDWLVFDPAQRAEALKQGNAIMRKFLASKKHEAAKEVFVKIPQDSIAEIYNQCEEQGMESPLPAEDDNAIREHLCIRAYLEAHETFNEWFKHMNSVPQKPALIPQPTFTEKVAHEHKEKKYEMDFGIWKGHLDALTADVKEKMYNVLLFVDGGWMVDVREDAKEDHERTHQMVLLRKLCLPMLCFLLHTILHSTGQYQECLQLADMVSSERHKLYLVFSKEELRKLLQKLRESSLMLLDQGLDPLGYEIQL

The binders below were run against endogenous BAZ2A tagged with HA and FLAG sequences (human (endogenous in PC3)) (UniProt Q9UIF9) (assay: co-IP; anti-HA magnetic beads IP from MNase-digested nuclear extract of the PC3 line with endogenous F/H-tagged BAZ2A, parental PC3 cells as control; without RNase A; Western blot).

Binder	binding
B1	binds
B2	binds
B3	binds

What follows are binders tested against endogenous BAZ2A tagged with HA and FLAG sequences (human (endogenous in PC3)) (UniProt Q9UIF9) (assay: co-IP; as a3, but the nuclear extract treated with 100 μg/ml RNase A during the overnight IP at 4°C; Western blot).

Binder	binding
B1	binds
B2	binds
B3	binds
